In the supplement of paper PMC4604168 (melanoma cell lines):
The other results are listed elsewhere or left out. Repeats are few or missing, and single values can be far off.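 The apoptosis fraction was the count of cleaved-PARP antibody-stained nuclei relative to all DNA-stained nuclei, imaged in 1,536-well plates. Screening doses were set so most cells survived, and baseline and induced cleaved-PARP levels vary greatly across cell lines.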

Legend:
Test in all cases: cleaved PARP positive nuclei fraction relative to DMSO control; melanoma cells; higher = more apoptosis
Settings in all cases: library dose: low library concentration; 72 h
[1] = system: MZ2-MEL
[2] = system: MeWo
[3] = system: RPMI7951
[4] = system: RVH-421
[5] = system: SkMel28
[6] = system: SkMel2
[7] = system: SkMel30
[8] = system: SkMel5
[9] = system: UACC257
[10] = system: UACC62

Compound | cleaved PARP positive nuclei fraction [1] | cleaved PARP positive nuclei fraction [2] | cleaved PARP positive nuclei fraction [3] | cleaved PARP positive nuclei fraction [4] | cleaved PARP positive nuclei fraction [5] | cleaved PARP positive nuclei fraction [6] | cleaved PARP positive nuclei fraction [7] | cleaved PARP positive nuclei fraction [8] | cleaved PARP positive nuclei fraction [9] | cleaved PARP positive nuclei fraction [10]
C=CCNC1=C2C[C@@H](C)C[C@H](OC)[C@H](O)[C@@H](C)/C=C(\C)[C@H](OC(N)=O)[C@@H](OC)/C=C\C=C(/C)C(=O)NC(=CC1=O)C2=O [Tanespimycin] + N#Cc1c(O)c2c(-c3ccc(-c4ccccc4O)cc3)csc2[nH]c1=O [A769662] (first compound 0.002 µM, partner dose 2 µM) | 94.8% | 182% | 138% | 167% | 97.6% | 68.2% | 239% | 173% | 68.5% | 76.3%
COc1cc(Nc2ncc(F)c(Nc3ccc4c(n3)NC(=O)C(C)(C)O4)n2)cc(OC)c1OC [Tamatinib] + O=C(Nc1cccc(Cl)c1)Nc1ncc(CCNc2ncnc3ccsc23)s1 [SNS314] (first compound 0.4 µM, partner dose 0.0008 µM) | 125% | 81.8% | 30.7% | 108% | 53.7% | 159% | 164% | 90.9% | 209% | 186%
C[C@]1(c2nc3c(C(N)=O)cccc3[nH]2)CCCN1 [Veliparib] + NCC(=O)Nc1ccc(-n2nc(C(F)(F)F)cc2-c2ccc3c(ccc4ccccc43)c2)cc1 [OSU03012] (first compound 1.4 µM, partner dose 1 µM) | 48.2% | 234% | 76.7% | 126% | 40.7% | 178% | 277% | 31.8% | 142% | 133%
CC(C)(C)c1cnc(CSc2cnc(NC(=O)C3CCNCC3)s2)o1 + Cc1cc(N2CCOCC2)cc2[nH]c(-c3c(NC[C@@H](O)c4cccc(Cl)c4)cc[nH]c3=O)nc12 [BMS536924] (first compound 0.01 µM, partner dose 0.2 µM) | 143% | 154% | 103% | 29.3% | 151% | 214% | 161% | 67.7% | 59.6% | 132%
C[C@]1(c2nc3c(C(N)=O)cccc3[nH]2)CCCN1 [Veliparib] + CN(NC(=O)CC(=O)NN(C)C(=S)c1ccccc1)C(=S)c1ccccc1 [STA4783] (first compound 1.4 µM, partner dose 0.006 µM) | 48.9% | 53.1% | 110% | 49.5% | 64.5% | 54.9% | 96.8% | 136% | 255% | 76.5%
C=CCn1c(=O)c2cnc(Nc3ccc(N4CCN(C)CC4)cc3)nc2n1-c1cccc(C(C)(C)O)n1 + COc1cc2c(Oc3ccc4[nH]c(C)cc4c3F)ncnc2cc1OCCCN1CCCC1 [cediranib] (first compound 0.02 µM, partner dose 0.4 µM) | 28.8% | 110% | 54.6% | 483% | 182% | 95.1% | 76.1% | 158% | 42.2% | 216%
Cn1nnc2c(C(N)=O)ncn2c1=O [temozolomide] + Cc1ccc(NC(=O)c2cccc(N(C)C)c2)cc1NC(=O)c1ccc(O)cc1 [ZM336372] (first compound 2 µM, partner dose 2 µM) | 104% | 149% | 95.6% | 32.6% | 39.2% | 72.1% | 82.6% | 62.7% | 37.6% | 288%
O=C(CCCCCCC(=O)Nc1ccccc1)NO [vorinostat] + COc1cc2c(Oc3ccc4[nH]c(C)cc4c3F)ncnc2cc1OCCCN1CCCC1 [cediranib] (first compound 0.08 µM, partner dose 0.4 µM) | 57.6% | 55.7% | 159% | 90.4% | 51% | 159% | 64.3% | 90.2% | 230% | 76%
Cn1cncc1[C@@](N)(c1ccc(Cl)cc1)c1ccc2c(c1)c(-c1cccc(Cl)c1)cc(=O)n2C [tipifarnib] + O=C(O)c1ccc(-c2c[nH]c3ncc(-c4ccccc4)cc23)cc1C1CCCC1 [GSK650394] (first compound 0.01 µM, partner dose 0.16 µM) | 136% | 175% | 90.2% | 129% | 66.2% | 160% | 259% | 28% | 108% | 228%
COc1cc(Nc2ncc(F)c(Nc3ccc4c(n3)NC(=O)C(C)(C)O4)n2)cc(OC)c1OC [Tamatinib] + COc1cc2c(Oc3ccc4[nH]c(C)cc4c3F)ncnc2cc1OCCCN1CCCC1 [cediranib] (first compound 0.4 µM, partner dose 0.4 µM) | 109% | 111% | 129% | 47.1% | 34.4% | 142% | 91% | 237% | 120% | 104%

Looked up one by one from the entries so far:
Compound | cleaved PARP positive nuclei fraction [1] | cleaved PARP positive nuclei fraction [2] | cleaved PARP positive nuclei fraction [3] | cleaved PARP positive nuclei fraction [4] | cleaved PARP positive nuclei fraction [5] | cleaved PARP positive nuclei fraction [6] | cleaved PARP positive nuclei fraction [7] | cleaved PARP positive nuclei fraction [8] | cleaved PARP positive nuclei fraction [9] | cleaved PARP positive nuclei fraction [10]
C[C@]1(c2nc3c(C(N)=O)cccc3[nH]2)CCCN1 [Veliparib] + NCC(=O)Nc1ccc(-n2nc(C(F)(F)F)cc2-c2ccc3c(ccc4ccccc43)c2)cc1 [OSU03012] (first compound 1.4 µM, partner dose 1 µM) | 48.2% | 234% | 76.7% | 126% | 40.7% | 178% | 277% | 31.8% | 142% | 133%
C=CCNC1=C2C[C@@H](C)C[C@H](OC)[C@H](O)[C@@H](C)/C=C(\C)[C@H](OC(N)=O)[C@@H](OC)/C=C\C=C(/C)C(=O)NC(=CC1=O)C2=O [Tanespimycin] + N#Cc1c(O)c2c(-c3ccc(-c4ccccc4O)cc3)csc2[nH]c1=O [A769662] (first compound 0.002 µM, partner dose 2 µM) | 94.8% | 182% | 138% | 167% | 97.6% | 68.2% | 239% | 173% | 68.5% | 76.3%
